Measurements as given in article PMC8569893.
Results are given in words; binding and its absence hold for the method and conditions named. Binding seen in cells or lysates may run through a third protein. Some results given as binding are weak or reduced against the parent protein; the word gives no strength.

The chains behind the UniProt entries cited, without tags or fusion partners.
UniProt Q02880: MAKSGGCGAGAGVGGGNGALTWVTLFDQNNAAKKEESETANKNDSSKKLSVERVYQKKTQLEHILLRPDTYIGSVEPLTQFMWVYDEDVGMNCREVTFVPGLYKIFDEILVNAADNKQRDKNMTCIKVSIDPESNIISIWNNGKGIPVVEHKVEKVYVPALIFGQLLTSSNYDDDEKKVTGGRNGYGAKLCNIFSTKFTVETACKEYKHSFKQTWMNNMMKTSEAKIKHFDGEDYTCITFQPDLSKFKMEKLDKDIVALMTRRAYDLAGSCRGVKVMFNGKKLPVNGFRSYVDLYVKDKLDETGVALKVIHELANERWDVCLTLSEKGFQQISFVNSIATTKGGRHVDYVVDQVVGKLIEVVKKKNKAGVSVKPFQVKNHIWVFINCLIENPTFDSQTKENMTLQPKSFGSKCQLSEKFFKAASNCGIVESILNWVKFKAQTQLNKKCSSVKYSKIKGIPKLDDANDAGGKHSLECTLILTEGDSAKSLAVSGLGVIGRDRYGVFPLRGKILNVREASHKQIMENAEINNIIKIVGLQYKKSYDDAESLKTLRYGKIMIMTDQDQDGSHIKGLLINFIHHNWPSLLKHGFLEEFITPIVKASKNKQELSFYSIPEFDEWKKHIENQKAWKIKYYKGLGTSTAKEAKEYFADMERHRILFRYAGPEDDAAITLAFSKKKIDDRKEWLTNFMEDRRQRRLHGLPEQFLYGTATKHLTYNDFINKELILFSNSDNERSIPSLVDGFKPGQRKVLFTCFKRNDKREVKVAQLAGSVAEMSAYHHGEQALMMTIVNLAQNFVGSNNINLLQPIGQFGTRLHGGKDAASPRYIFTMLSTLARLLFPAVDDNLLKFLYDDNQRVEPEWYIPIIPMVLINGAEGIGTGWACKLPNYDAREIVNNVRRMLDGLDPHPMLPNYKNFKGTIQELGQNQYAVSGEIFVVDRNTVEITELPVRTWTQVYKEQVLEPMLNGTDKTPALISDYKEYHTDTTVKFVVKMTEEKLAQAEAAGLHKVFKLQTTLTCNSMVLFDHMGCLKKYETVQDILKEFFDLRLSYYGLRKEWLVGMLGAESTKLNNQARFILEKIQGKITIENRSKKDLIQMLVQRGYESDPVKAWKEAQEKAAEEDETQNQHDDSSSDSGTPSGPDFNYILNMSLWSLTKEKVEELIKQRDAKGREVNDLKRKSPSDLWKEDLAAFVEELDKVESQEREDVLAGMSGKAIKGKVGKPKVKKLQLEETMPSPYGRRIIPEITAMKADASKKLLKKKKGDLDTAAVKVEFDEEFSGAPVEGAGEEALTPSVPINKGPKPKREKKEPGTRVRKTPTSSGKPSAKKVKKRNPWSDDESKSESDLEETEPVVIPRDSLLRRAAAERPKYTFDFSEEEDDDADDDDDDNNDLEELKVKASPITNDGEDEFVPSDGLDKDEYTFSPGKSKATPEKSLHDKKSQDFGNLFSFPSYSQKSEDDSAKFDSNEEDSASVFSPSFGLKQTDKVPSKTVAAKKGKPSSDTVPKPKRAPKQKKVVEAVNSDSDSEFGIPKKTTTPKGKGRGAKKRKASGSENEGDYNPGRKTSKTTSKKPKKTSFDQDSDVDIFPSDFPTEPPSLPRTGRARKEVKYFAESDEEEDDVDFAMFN
UniProt P11388: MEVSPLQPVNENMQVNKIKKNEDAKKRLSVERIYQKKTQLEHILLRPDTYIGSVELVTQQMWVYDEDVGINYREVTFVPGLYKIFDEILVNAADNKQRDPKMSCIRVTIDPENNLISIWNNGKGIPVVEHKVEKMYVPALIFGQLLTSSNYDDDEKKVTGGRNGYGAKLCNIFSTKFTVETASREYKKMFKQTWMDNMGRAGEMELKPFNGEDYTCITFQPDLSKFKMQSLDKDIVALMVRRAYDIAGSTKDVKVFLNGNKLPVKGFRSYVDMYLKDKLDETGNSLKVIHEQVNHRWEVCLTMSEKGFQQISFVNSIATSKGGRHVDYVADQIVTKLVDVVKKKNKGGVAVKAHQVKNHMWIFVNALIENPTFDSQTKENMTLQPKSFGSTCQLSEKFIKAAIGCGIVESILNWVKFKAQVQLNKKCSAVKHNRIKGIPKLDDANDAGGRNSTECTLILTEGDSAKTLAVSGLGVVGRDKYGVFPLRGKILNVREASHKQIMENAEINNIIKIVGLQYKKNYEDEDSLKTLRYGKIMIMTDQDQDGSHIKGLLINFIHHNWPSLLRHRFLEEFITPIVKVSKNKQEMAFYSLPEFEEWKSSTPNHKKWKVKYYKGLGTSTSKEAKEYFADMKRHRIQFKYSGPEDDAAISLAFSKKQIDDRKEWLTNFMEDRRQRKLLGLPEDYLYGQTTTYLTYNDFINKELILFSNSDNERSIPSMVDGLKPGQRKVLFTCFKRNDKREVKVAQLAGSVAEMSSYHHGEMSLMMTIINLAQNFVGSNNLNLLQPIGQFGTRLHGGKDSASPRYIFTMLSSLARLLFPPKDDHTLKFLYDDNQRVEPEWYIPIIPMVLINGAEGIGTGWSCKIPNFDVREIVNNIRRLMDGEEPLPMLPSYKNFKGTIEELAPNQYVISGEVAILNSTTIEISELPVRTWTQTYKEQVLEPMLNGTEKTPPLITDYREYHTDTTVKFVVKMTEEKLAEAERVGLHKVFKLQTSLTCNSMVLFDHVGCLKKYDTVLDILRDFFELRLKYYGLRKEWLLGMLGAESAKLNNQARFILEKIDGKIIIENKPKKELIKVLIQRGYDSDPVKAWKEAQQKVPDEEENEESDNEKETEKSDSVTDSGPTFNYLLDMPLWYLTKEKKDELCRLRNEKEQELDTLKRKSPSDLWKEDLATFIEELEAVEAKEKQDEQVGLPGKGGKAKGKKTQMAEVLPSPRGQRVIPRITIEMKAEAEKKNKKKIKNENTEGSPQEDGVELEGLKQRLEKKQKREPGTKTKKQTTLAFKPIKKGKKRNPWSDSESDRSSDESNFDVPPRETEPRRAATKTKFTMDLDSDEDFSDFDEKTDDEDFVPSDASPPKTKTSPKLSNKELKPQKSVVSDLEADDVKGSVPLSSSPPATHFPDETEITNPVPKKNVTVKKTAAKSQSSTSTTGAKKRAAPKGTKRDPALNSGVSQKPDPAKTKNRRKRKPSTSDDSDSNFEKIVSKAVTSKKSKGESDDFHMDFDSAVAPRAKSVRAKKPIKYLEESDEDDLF
UniProt Q03468: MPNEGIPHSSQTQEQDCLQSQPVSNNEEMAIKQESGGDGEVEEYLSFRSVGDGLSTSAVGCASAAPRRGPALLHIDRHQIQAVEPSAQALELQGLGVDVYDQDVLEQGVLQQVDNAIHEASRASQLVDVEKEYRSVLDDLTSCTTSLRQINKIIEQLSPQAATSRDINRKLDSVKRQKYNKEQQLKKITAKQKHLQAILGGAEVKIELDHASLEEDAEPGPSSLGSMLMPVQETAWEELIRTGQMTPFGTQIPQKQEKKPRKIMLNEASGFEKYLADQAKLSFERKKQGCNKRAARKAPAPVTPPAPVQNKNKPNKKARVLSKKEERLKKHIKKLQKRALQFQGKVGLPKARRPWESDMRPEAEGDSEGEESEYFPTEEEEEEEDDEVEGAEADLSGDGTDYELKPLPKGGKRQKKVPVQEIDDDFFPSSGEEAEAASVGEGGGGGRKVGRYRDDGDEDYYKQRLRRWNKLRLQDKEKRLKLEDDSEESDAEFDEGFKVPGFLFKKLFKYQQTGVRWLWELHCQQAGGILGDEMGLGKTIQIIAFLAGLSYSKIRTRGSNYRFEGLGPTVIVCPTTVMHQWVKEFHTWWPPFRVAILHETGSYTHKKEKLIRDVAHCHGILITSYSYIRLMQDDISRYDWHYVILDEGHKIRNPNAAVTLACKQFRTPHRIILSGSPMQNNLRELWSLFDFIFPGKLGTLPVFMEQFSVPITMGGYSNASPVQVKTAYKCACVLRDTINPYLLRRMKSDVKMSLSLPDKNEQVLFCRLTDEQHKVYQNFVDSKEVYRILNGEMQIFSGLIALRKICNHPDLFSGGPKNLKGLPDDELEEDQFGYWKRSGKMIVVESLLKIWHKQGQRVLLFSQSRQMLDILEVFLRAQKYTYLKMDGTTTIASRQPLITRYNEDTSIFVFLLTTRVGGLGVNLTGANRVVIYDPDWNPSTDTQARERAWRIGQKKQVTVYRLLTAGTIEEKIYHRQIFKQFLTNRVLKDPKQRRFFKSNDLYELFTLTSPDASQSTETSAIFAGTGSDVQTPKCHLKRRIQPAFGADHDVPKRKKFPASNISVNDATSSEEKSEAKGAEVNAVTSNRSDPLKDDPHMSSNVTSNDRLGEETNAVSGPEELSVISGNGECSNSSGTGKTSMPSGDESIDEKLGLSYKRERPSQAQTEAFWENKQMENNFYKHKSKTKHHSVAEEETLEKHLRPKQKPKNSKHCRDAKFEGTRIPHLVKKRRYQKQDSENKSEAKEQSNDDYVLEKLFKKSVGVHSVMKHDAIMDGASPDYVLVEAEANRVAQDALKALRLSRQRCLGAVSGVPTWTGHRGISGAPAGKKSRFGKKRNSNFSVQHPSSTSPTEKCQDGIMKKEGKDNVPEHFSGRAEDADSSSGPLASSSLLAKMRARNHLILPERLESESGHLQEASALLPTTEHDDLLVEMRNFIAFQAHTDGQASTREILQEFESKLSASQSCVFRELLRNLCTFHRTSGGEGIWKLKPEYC

Columns and labels:
FLAG tagged TOP2B [1] = target: FLAG tagged TOP2B (UniProt Q02880); assay: co-IP; FLAG-TOP2B precipitated on ANTI-FLAG M2 Affinity Gel from lysate of HEK-293T cells treated 2 h with DOX, blot with anti-CSB
FLAG tagged TOP2B [2] = target: FLAG tagged TOP2B (UniProt Q02880); assay: co-IP; FLAG-TOP2A or FLAG-TOP2B precipitated on ANTI-FLAG M2 Affinity Gel from HEK-293T lysate, washed with 50 mM Tris-HCl pH 7.5, 250 mM NaCl, 0.5% NP40, blot with anti-CSB; cells untreated or treated 2 h with DOX, MXT or ETO
FLAG tagged TOP2A = FLAG tagged TOP2A (UniProt P11388); assay: as above
FLAG tagged TOP2B [3] = target: FLAG tagged TOP2B (UniProt Q02880); assay: co-IP; FLAG-TOP2B precipitated on ANTI-FLAG M2 Affinity Gel from lysate of HEK-293T cells treated 2 h with ETO, blot with anti-CSB

binding (FLAG tagged TOP2B [2]): binds weakly
binding (FLAG tagged TOP2A): binds weakly
Substance: Cockayne Syndrome B (CSB) protein (from UniProt Q03468 1-1493)
binding (FLAG tagged TOP2B [1]): no binding (condition: cells treated with DOX for 2 h)
binding (FLAG tagged TOP2B [3]): no binding (condition: cells treated with ETO for 2 h)
